The text below walks through data of patent US7060435.

The chains behind the UniProt entries cited, without tags or fusion partners. Residues count along the entry.
UniProt P08047, 2-785: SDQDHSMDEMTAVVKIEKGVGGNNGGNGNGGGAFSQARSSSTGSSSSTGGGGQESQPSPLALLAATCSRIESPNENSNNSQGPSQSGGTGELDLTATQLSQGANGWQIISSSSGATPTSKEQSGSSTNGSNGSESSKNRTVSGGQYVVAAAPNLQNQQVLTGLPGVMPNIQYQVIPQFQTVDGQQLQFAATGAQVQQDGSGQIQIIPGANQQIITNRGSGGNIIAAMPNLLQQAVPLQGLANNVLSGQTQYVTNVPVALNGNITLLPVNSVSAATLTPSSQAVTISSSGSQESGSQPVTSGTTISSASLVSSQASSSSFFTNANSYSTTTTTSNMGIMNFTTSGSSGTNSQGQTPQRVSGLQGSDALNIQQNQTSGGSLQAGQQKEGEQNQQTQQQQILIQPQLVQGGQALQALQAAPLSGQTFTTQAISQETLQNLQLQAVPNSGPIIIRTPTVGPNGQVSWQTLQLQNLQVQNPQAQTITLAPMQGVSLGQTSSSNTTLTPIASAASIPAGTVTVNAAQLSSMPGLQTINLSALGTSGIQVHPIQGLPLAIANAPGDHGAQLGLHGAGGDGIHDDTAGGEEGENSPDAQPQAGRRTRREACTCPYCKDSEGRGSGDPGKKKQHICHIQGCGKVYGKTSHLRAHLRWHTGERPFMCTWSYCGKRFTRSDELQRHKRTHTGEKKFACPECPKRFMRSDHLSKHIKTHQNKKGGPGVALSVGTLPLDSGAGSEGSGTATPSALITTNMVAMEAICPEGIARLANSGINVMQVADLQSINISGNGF

Data set [1] concerns the target Sp1 (UniProt P08047). In words: competition with a labelled probe. As to conditions: 50- and 100-fold excess unlabeled wild-type oligo did not compete the A-147G band shift; protein in an extract.
Data set [2] addresses Sp1 (UniProt P08047). In words: EMSA. Particulars: band shift with 2 ug HeLa nuclear extract, 30 min 16 C; competed by 50-100x unlabeled self; supershifted by anti-Sp1 antibody; protein in an extract; label: 32P 5' end (T4 polynucleotide kinase); variant of CYP3A5 wild-type -147A 31-mer.

Where cells or extracts were used, other partners may take part. For some assays here: No signal at the amounts used counts as a negative.

Regarding “GGCAGCTGCAGCCCCACCTCCTTCTCCAGCA (double strand) [CYP3A5 wild-type -147A 31-mer]”, in data set [1], the binding result was “no binding”.

Take “GGCAGCTGCAGCCCCGCCTCCTTCTCCAGCA (double strand) [CYP3A5 A-147G 31-mer]”: the binding result in data set [2] is reported as “binds”.
